Measurements reported in PubChem BioAssay AID1224830 (NIAID, 2016)

Test: 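Regulators of TLR4 signalling towards TNF-alpha in macrophage-like cells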 (primary screen)
Cells: human THP-1 monocytic leukaemia cells, TNF dual-luciferase reporter clone, PMA-differentiated to macrophage-like cells
Knock-down reagent: siRNA pool against human genes, 50 nM
Duration: LPS for 4 h, given about 3 days after siRNA transfection
Challenge: bacterial LPS (TLR4 ligand), 10 ng/ml
Read-out: 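Ratio of firefly to renilla light, scaled to the plate median and expressed as a robust z-score per replicate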
Scale: TNF reporter robust z-score: higher = stronger TNF reporter response to LPS
Rule for the call: 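a well is active when its z-score exceeds 2.8 or falls below -1.5; control wells carry no call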
This is a random part of about 18,000 reagents. About 2,900 of them (16%) count as active. 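Calls are made per well; low scores hint the gene aids the LPS response, high scores that it dampens it.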 Repeated entries: four replicate wells of each siRNA pool.

| gene knocked down | TNF reporter robust z-score | outcome |
| --- | --- | --- |
| CAMK2G (calcium/calmodulin dependent protein kinase II gamma) | 0.12 | inactive |
| CAMK2G (calcium/calmodulin dependent protein kinase II gamma) | 1.62 | inactive |
| CAMK2G (calcium/calmodulin dependent protein kinase II gamma) | 0.52 | inactive |
| CAMK2G (calcium/calmodulin dependent protein kinase II gamma) | 1.75 | inactive |
| PLEKHB1 (pleckstrin homology domain containing B1) | -0.35 | inactive |
| PLEKHB1 (pleckstrin homology domain containing B1) | -0.73 | inactive |
| PLEKHB1 (pleckstrin homology domain containing B1) | 0.72 | inactive |
| PLEKHB1 (pleckstrin homology domain containing B1) | -0.02 | inactive |
| HP1BP3 (heterochromatin protein 1 binding protein 3) | -0.56 | inactive |
| HP1BP3 (heterochromatin protein 1 binding protein 3) | 1.24 | inactive |
| HP1BP3 (heterochromatin protein 1 binding protein 3) | 0.07 | inactive |
| HP1BP3 (heterochromatin protein 1 binding protein 3) | 0.02 | inactive |
| RLF (RLF zinc finger) | 0.17 | inactive |
| RLF (RLF zinc finger) | -0.17 | inactive |
| RLF (RLF zinc finger) | 1.4 | inactive |
| RLF (RLF zinc finger) | -0.18 | inactive |
| C11orf68 (chromosome 11 open reading frame 68) | -1.51 | active |
| C11orf68 (chromosome 11 open reading frame 68) | -1.13 | inactive |
| C11orf68 (chromosome 11 open reading frame 68) | -1.09 | inactive |
| C11orf68 (chromosome 11 open reading frame 68) | -0.86 | inactive |
| WDR19 (WD repeat domain 19) | -0.63 | inactive |
| WDR19 (WD repeat domain 19) | 0.36 | inactive |
| WDR19 (WD repeat domain 19) | 0.41 | inactive |
| WDR19 (WD repeat domain 19) | 0.55 | inactive |
| PKP3 (plakophilin 3) | -0.85 | inactive |
| PKP3 (plakophilin 3) | -0.83 | inactive |
| PKP3 (plakophilin 3) | 2.48 | inactive |
| TMEM150C (transmembrane protein 150C) | 0.55 | inactive |
| TMEM150C (transmembrane protein 150C) | 1.68 | inactive |
| TMEM150C (transmembrane protein 150C) | 1.63 | inactive |
| TMEM150C (transmembrane protein 150C) | -0.64 | inactive |
| CXCL13 (C-X-C motif chemokine ligand 13) | -1.34 | inactive |
| CXCL13 (C-X-C motif chemokine ligand 13) | -0.47 | inactive |
| CXCL13 (C-X-C motif chemokine ligand 13) | -1.23 | inactive |
| CXCL13 (C-X-C motif chemokine ligand 13) | -0.46 | inactive |
| TMEM200A (transmembrane protein 200A) | -1.13 | inactive |
| TMEM200A (transmembrane protein 200A) | -0.48 | inactive |
| TMEM200A (transmembrane protein 200A) | -0.56 | inactive |
| TMEM200A (transmembrane protein 200A) | 0.16 | inactive |
| MRPL37 (mitochondrial ribosomal protein L37) | 0.57 | inactive |
| MRPL37 (mitochondrial ribosomal protein L37) | 0.76 | inactive |
| MRPL37 (mitochondrial ribosomal protein L37) | 2.13 | inactive |
| MRPL37 (mitochondrial ribosomal protein L37) | 1.25 | inactive |
| FAM9C (family with sequence similarity 9 member C) | -0.68 | inactive |
| FAM9C (family with sequence similarity 9 member C) | -0.39 | inactive |
| FAM9C (family with sequence similarity 9 member C) | -0.61 | inactive |
| FAM9C (family with sequence similarity 9 member C) | -0.29 | inactive |
| NR3C2 (nuclear receptor subfamily 3 group C member 2) | -0.52 | inactive |
| NR3C2 (nuclear receptor subfamily 3 group C member 2) | 0.37 | inactive |
| NR3C2 (nuclear receptor subfamily 3 group C member 2) | 0.67 | inactive |
| NR3C2 (nuclear receptor subfamily 3 group C member 2) | 1.85 | inactive |
| ZNF608 (zinc finger protein 608) | 0.47 | inactive |
| ZNF608 (zinc finger protein 608) | 0 | inactive |
| ZNF608 (zinc finger protein 608) | 0.86 | inactive |
| ZNF608 (zinc finger protein 608) | 0.3 | inactive |
| PSMC3 (proteasome 26S subunit, ATPase 3) | -1.27 | inactive |
| PSMC3 (proteasome 26S subunit, ATPase 3) | -1.49 | inactive |
| PSMC3 (proteasome 26S subunit, ATPase 3) | -1.74 | active |
| PSMC3 (proteasome 26S subunit, ATPase 3) | -1.2 | inactive |
| GALNTL6 (polypeptide N-acetylgalactosaminyltransferase like 6) | -0.81 | inactive |
| GALNTL6 (polypeptide N-acetylgalactosaminyltransferase like 6) | -0.61 | inactive |
| GALNTL6 (polypeptide N-acetylgalactosaminyltransferase like 6) | -0.31 | inactive |
| GALNTL6 (polypeptide N-acetylgalactosaminyltransferase like 6) | -0.36 | inactive |
| RADX (RPA1 related single stranded DNA binding protein, X-linked) | -0.04 | inactive |
| RADX (RPA1 related single stranded DNA binding protein, X-linked) | -0.56 | inactive |
| RADX (RPA1 related single stranded DNA binding protein, X-linked) | 1.06 | inactive |
| RADX (RPA1 related single stranded DNA binding protein, X-linked) | 1.33 | inactive |
| CCNG1 (cyclin G1) | -0.52 | inactive |
| CCNG1 (cyclin G1) | 0.14 | inactive |
| CCNG1 (cyclin G1) | 0.32 | inactive |
| CCNG1 (cyclin G1) | 0.72 | inactive |
| COL13A1 (collagen type XIII alpha 1 chain) | -0.09 | inactive |
| COL13A1 (collagen type XIII alpha 1 chain) | -0.63 | inactive |
| COL13A1 (collagen type XIII alpha 1 chain) | -0.65 | inactive |
| COL13A1 (collagen type XIII alpha 1 chain) | 0.06 | inactive |
